# Laboratory results as given in the supplement of paper PMC7580552.
# Counter-ions that a name gives are not always drawn. Some of the results follow. Part of the spread comes from offsets between plates or batches.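 The strain is a K-12 laboratory model grown without shaking in 96-well plates, and biofilm is the crystal violet stain retained on the wells, read as absorbance. Drugs were picked as candidate specific biofilm blockers when they cut staining strongly but slowed free-floating growth by less than 70%.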
# Tested on: Escherichia coli W3110
# Experiment: biofilm formation (crystal violet staining) relative to untreated control; higher = more biofilm
# Settings: 10 µM; 20-24 h; 30 °C; TB
row,Structure (SMILES),biofilm formation [%]
1,CC[N+](C)(CC)CCC[n+]1c(-c2ccccc2)c2cc(N)ccc2c2ccc(N)cc21 [Propidium iodide],69
2,O=C(O)c1ccccc1Nc1cccc(C(F)(F)F)c1 [Flufenamic acid],55
3,Clc1ccc(C(c2ccccc2Cl)C(Cl)Cl)cc1 (stereo unspecified) [Mitotane],75
4,O=C1O[C@H]([C@@H](O)CO)C(O)=C1O [Ascorbic acid],64
5,Cc1cccc(C)c1OCC(=O)N[C@@H](Cc1ccccc1)[C@@H](O)C[C@H](Cc1ccccc1)NC(=O)[C@H](C(C)C)N1CCCNC1=O [Lopinavir],58
6,Nc1ccc(C(=O)O)c(O)c1 [4-aminosalicylic acid],82
7,O=C1Nc2ccc(Cl)cc2[C@@](C#CC2CC2)(C(F)(F)F)O1 [Efavirenz],71
8,CCC(C)(C)C(=O)O[C@H]1C[C@@H](C)C=C2C=C[C@H](C)[C@H](CC[C@@H]3C[C@@H](O)CC(=O)O3)[C@H]21 [Simvastatin],62
9,CC(=O)Oc1ccc(C(c2ccc(OC(C)=O)cc2)c2ccccn2)cc1 [Bisacodyl],68
10,CCCc1nn(C)c2c(=O)[nH]c(-c3cc(S(=O)(=O)N4CCN(C)CC4)ccc3OCC)nc12 [Sildenafil],121
11,CCCNC(C)(C)COC(=O)c1ccccc1 [Meprylcaine hydrochloride],70
12,C[N+](C)(CCOc1ccccc1)Cc1ccccc1.O=C([O-])c1cc2ccccc2cc1O [Bephenium hydroxynaphthoate],56
13,CC(NCCc1ccc(O)cc1)C(O)c1ccc(O)cc1 (stereo unspecified) [Ritodrine hydrochloride],82
14,CCC1(C)CC(=O)NC1=O (stereo unspecified) [Ethosuximide],71
15,NC1CCN(c2c(F)cc3c(=O)c(C(=O)O)cn(C4CC4)c3c2Cl)C1 (stereo unspecified) [Clinafloxacin],14
16,CCc1nn(CCCN2CCN(c3cccc(Cl)c3)CC2)c(=O)n1CCOc1ccccc1 [Nefazodone hydrochloride],78
17,CCOC(=O)C1=C(C)NC(C)=C(C(=O)OC)C1c1cccc(Cl)c1Cl (stereo unspecified) [Felodipine],104
18,C[C@H](CCC(=O)O)[C@H]1CC[C@H]2[C@@H]3C(=O)C[C@@H]4CC(=O)CC[C@]4(C)[C@H]3CC(=O)[C@]12C [Dehydrocholic acid],139
19,O=C1c2c(O)ccc(O)c2C(=O)c2c(NCCNCCO)ccc(NCCNCCO)c21 [Mitoxantrone dihydrochloride],129
20,O=C(NC(Cc1cc(=O)[nH]c2ccccc12)C(=O)O)c1ccc(Cl)cc1 (stereo unspecified) [Rebamipide],66
21,C[N+](C)(C)CCOC(N)=O [Carbachol],80

# A second format for 2 compounds above:
row	Structure (SMILES)	biofilm formation [%]
2	O=C(O)c1ccccc1Nc1cccc(C(F)(F)F)c1 [Flufenamic acid]	55
3	Clc1ccc(C(c2ccccc2Cl)C(Cl)Cl)cc1 (stereo unspecified) [Mitotane]	75
